Results are given in words; binding and its absence hold for the method and conditions named. In cells and extracts the contact can be indirect. Some binding calls cover weakened binding; strength is not graded here.

Protein sequences, listed by entry. Tags and fused reporters are not part of them. Residues count along the entry.
UniProt P84022, residues 232-425: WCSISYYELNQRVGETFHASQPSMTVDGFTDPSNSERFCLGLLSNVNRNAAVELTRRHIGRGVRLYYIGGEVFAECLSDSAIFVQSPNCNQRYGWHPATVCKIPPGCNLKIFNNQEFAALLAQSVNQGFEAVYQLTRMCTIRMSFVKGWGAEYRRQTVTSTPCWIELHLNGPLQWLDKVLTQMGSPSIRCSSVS

The assay addresses MH2 domain of Smad3 (Smad3 C) (human) (UniProt P84022). As to the kind of experiment: co-IP; H1299 cells transiently transfected, 24 h; lysates immunoprecipitated with an anti-FLAG antibody, complexes eluted with 3xFLAG peptide, immunoblotted. Background: A western blot detects proteins with antibodies after separation by electrophoresis.

Consider p53 (from UniProt P04637 1-393), for which the binding entry was “binds”.
